# For part of these data: A negative result means that nothing was seen under these conditions. For part of these data: The exact form of at least one protein or probe is not confirmed. For part of these data: At least one result comes from cells or an extract, where the contact may be indirect. For part of these data: A weaker result is weaker than the reference pair of the same experiment. For part of these data: At least one verdict was read from the data and is not stated in words by the source.
# Chains of the proteins cited; added tags and fusions are not shown. Lines headed by an entry give the natural chain unless they say otherwise; changes in a name come on top. Residues count along the entry.
# UniProt P05106, 27-788: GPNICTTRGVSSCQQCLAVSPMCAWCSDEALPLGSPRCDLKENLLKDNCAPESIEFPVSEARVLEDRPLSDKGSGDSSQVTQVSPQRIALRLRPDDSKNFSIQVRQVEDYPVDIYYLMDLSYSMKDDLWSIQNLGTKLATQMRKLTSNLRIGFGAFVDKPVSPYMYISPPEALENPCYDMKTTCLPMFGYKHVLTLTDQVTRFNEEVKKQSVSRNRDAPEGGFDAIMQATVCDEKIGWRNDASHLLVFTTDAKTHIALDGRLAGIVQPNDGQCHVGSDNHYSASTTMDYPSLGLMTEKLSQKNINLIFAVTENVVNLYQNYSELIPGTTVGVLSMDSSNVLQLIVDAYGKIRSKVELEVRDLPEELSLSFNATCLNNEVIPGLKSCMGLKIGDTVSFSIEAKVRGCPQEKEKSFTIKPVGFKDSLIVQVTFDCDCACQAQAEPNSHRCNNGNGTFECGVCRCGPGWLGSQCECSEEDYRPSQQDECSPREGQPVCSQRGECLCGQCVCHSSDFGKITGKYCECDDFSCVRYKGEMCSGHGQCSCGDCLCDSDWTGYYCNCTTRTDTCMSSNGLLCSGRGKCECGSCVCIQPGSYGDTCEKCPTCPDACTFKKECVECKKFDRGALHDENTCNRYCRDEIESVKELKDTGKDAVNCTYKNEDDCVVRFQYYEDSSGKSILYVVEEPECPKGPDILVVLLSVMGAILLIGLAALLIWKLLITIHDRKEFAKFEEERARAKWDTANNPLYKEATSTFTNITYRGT
# UniProt P08514, 639-887: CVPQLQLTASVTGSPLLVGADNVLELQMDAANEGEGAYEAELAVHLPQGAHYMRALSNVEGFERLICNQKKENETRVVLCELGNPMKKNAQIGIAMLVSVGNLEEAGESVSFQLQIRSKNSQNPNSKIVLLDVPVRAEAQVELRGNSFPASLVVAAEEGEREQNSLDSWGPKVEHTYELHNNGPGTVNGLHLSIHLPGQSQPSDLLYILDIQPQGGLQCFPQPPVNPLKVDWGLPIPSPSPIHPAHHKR
# UniProt P06756: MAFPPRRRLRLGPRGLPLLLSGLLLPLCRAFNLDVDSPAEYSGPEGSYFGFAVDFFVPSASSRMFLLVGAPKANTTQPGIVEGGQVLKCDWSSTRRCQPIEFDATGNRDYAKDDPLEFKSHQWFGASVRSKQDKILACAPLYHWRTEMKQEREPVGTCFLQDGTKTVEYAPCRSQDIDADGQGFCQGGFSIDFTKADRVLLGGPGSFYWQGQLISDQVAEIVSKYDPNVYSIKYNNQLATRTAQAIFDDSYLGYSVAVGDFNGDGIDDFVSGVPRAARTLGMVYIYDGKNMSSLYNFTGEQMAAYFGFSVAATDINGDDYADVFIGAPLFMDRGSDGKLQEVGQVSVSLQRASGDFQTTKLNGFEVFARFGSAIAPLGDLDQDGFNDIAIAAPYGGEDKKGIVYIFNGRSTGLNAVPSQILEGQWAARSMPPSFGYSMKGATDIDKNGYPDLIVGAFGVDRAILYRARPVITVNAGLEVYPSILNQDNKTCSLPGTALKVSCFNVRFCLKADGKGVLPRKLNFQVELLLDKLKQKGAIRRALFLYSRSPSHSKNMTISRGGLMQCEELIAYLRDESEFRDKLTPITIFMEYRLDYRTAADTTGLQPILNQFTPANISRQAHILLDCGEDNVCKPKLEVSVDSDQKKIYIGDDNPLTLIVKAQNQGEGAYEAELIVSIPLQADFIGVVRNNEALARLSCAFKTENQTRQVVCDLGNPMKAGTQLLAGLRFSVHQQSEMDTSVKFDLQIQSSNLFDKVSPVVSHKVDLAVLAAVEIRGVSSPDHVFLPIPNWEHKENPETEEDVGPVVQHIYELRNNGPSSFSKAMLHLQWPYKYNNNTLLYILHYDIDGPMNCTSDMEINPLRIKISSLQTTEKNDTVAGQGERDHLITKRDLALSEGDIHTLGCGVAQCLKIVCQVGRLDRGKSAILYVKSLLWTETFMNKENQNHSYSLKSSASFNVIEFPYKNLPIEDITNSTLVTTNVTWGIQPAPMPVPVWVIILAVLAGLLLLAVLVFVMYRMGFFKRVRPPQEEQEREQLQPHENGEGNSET
# How the values were obtained:
# [1] = molecular target: Integrin beta3 (CD61, GP3A), overexpressed on A549-ITGB3-OE cells (Homo sapiens) (UniProt P05106); test: flow cytometry; settings: PBS with 5 mM MgCl2, 4.5 g/L glucose, 100 ug/mL tRNA, 4 C, 30 min, pH not stated, pull-down on ice 30 min
# [2] = molecular target: Integrin beta3 in membrane protein extract of A549-ITGB3-OE cells (Homo sapiens) (UniProt P05106); test: pull-down; settings: biotin aptamer, membrane proteins, formaldehyde crosslink after binding, anti-ITGB3 blot; PBS with 5 mM MgCl2, 4.5 g/L glucose, 100 ug/mL tRNA; 4 C, 30 min; pH not stated; pull-down on ice 30 min; protein in a lysate after overexpression; label: FAM, Cy5 or biotin by assay; folded or branched DNA
# [3] = molecular target: Integrin alphaIIb partial (CSB-EP011865HU) (Homo sapiens) (UniProt P08514); test: flow cytometry; settings: alphaIIb subunit (apparently on beads); PBS with 5 mM MgCl2, 4.5 g/L glucose, 100 ug/mL tRNA; 4 C, 30 min; pH not stated; pull-down on ice 30 min; commercial protein; residues 639-887; label: FAM, Cy5 or biotin by assay; folded or branched DNA
# [4] = molecular target: Integrin alphaV (ab114240) (Homo sapiens) (UniProt P06756); test: flow cytometry; settings: alphaV subunit (apparently on beads); PBS with 5 mM MgCl2, 4.5 g/L glucose, 100 ug/mL tRNA; 4 C, 30 min; pH not stated; pull-down on ice 30 min; commercial protein; label: FAM, Cy5 or biotin by assay; folded or branched DNA
# [5] = molecular target: Integrin beta3, endogenous on HeLa cells (UniProt P05106); test: flow cytometry; settings: live HeLa cells, 500 nM Cy5 aptamer; PBS with 5 mM MgCl2, 4.5 g/L glucose, 100 ug/mL tRNA; 4 C, 30 min; pH not stated; pull-down on ice 30 min; protein on the cell surface; label: FAM, Cy5 or biotin by assay; folded or branched DNA
# [6] = molecular target: Integrin beta3, endogenous on U87 cells (UniProt P05106); test: flow cytometry; settings: live U87 cells, 500 nM Cy5 aptamer; PBS with 5 mM MgCl2, 4.5 g/L glucose, 100 ug/mL tRNA; 4 C, 30 min; pH not stated; pull-down on ice 30 min; protein on the cell surface; label: FAM, Cy5 or biotin by assay; folded or branched DNA
# [7] = live A549-ITGB3-OE cells, protein on the cell …, label: fluorophore (FAM or Cy5), single-stranded DNA
sequence,measurement,setting,value
TTCAGCACTCCACGCATAGCGAAACGGTGCCATAAGATCAAGCCACATGACATGACCTTCCCTATGCGTGCTACCGTGAA [S7],binding result,[1]; [7],binds
TTCAGCACTCCACGCATAGCACATGTAGTGTGTGCGCCACAATTTGGGGCAACCAACTGACCTATGCGTGCTACCGTGAA [S2],binding result,[1]; [7],binds
TTCAGCACTCCACGCATAGCTTCTGACTGAATCGCTCGGTGTCGAAACAGGTGAGCCTTACCTATGCGTGCTACCGTGAA [S5],binding result,[1]; [7],binds
TTCAGCACTCCACGCATAGCTGACTGCTCCTTAGGTGTGACCTAAAGTGTTCTGTTTTCGCCTATGCGTGCTACCGTGAA [S9],binding result,[1]; [7],binds
TTCAGCACTCCACGCATAGCAGCCGAAGCGACAAGCTTGTGTAGAAGTTGGAAGCGTCCGCCTATGCGTGCTACCGTGAA [S4],binding result,[1]; [7],binds
TTCAGCACTCCACGCATAGCGAGACACGCAGTGTAGATGGTCAGGGCGTAGTTGAGCTTGCCTATGCGTGCTACCGTGAA [S8],binding result,[1]; [7],binds
TTCAGCACTCCACGCATAGCTGTGTTCACAAGATAAAGGGCTCCTAGGCTATGTGCGTCTCCTATGCGTGCTACCGTGAA [S6],binding result,[1]; [7],binds
TTCAGCACTCCACGCATAGCATACCCTGCCGCAAGCAGCTAATATTGATTAGTGACCGCCCCTATGCGTGCTACCGTGAA [S3],binding result,[1]; [7],binds
TCCACGATGTAGGATCCACATGAGCGCTCCTGTTACCCTG [S10yh2],binding result,[2],binds
same,binding result,[3],no binding
same,binding result,[4],no binding
same,binding result,"[1]; 5 mM Ca2+ added to Mg2+ buffer, binding unaffected, protein on the cell surface, label: FAM, Cy5 or biotin by assay, folded or branched DNA",binds
same,binding result,"[1]; DMEM + 10% FBS, no significant change, protein on the cell surface, label: FAM, Cy5 or biotin by assay, folded or branched DNA",binds
same,binding result,"[1]; EDTA added (Mg2+ chelated), protein on the cell surface, label: FAM, Cy5 or biotin by assay, folded or branched DNA",binds more weakly
same,binding result,[5],binds
same,binding result,[6],binds
TTCACGCATAGCTCCACGATGTAGGATCCACATGAGCGCTCCTGTTACCCTGCCTATGCGTGAA [S10yh1],binding result,"[1]; live A549-ITGB3-OE cells, equivalent to S10yh2, protein on the cell surface, label: fluorophore (FAM or Cy5), folded or branched DNA",binds
TTCAGCACTCCACGCATAGCTGGCTATTCCGAGATTCCTTGCGCGAACTTCGTTGCTACACCTATGCGTGCTACCGTGAA [S1],binding result,[1]; [7],binds

# Reference: publication PMC10448441
